From paper PMC3811882 come the findings set out here.

One data set has as its target T1, Prdm4-ZFD (UniProt Q80V63).
T1 sequence (looked up, limits assumed): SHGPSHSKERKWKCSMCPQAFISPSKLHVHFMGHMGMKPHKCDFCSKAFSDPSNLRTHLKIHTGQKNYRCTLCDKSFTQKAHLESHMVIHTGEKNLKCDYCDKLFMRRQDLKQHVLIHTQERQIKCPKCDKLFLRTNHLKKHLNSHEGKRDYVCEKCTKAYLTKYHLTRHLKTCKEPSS
Put plainly: EMSA. As to conditions: EMSA as previously described (ref 41); 0.8% agarose gels for nuclear complexes, 5% acrylamide for purified His-tagged Prdm4; pH and temperature not given; recombinant protein; protein details: …. Background: A gel shift assay detects complexes by their altered migration in electrophoresis.

Another data set deals with Prdm4ΔZF-EGFP (mouse) (UniProt Q80V63). Put plainly: EMSA. As to conditions: nuclear extract, protein predominantly cytoplasmic; EMSA as previously described (ref 41); 0.8% agarose gels for nuclear complexes, 5% acrylamide for purified His-tagged Prdm4; pH and temperature not given; protein in an extract; protein details: C-terminal EGFP.
The target of data set [1] is Prdm4-EGFP (full length) (mouse) (UniProt Q80V63). Nature of the data set: EMSA supershift. To be noted: supershift with anti-Prdm4 or anti-GFP antibody; EMSA as previously described (ref 41); 0.8% agarose gels for nuclear complexes, 5% acrylamide for purified His-tagged Prdm4; pH and temperature not given; protein in an extract; residues 1-803; protein details: C-terminal EGFP.

Construct, isoform or probe ends are uncertain for at least one entry. For some of these results: Weaker means in comparison with the reference protein, sequence or condition of that experiment. For some of these results: At least one verdict was read from the data and is not stated in words by the source. For some of these results: Where a protein sequence is shown, tags need not be part of it. For some of these results: Results from cells or extracts need not show a direct contact. For some of these results: No signal at the amounts used counts as a negative.

Turning to “GGCCTGGGTCGGCCCGCTTTTATCCTGGAAACCGTCCCCGGTTTATCTCCTT / GGAAGGAGATAAACCGGGGACGGTTTCCAGGATAAAAGCGGGCCGACCCAGG [ΔGGGG Bahcc1]”, in the data set with Prdm4-ZFD, the binding result is recorded as “binds more weakly”. Turning to “GGCCTGGGTCGGCCCGCGGGGATCCTGGAAACCGTCCCCGGTTTATCTCCTT / GGAAGGAGATAAACCGGGGACGGTTTCCAGGATCCCCGCGGGCCGACCCAGG [wild-type Bahcc1]”, the binding result with Prdm4ΔZF-EGFP (mouse) is given as “no binding”; in data set [1], “binds”.

Take “GGCCTGGGTCGGCCCGCGGGGATCAGGGAAACCGTCCCCGGTTTATCTCCTT / GGAAGGAGATAAACCGGGGACGGTTTCCCTGATCCCCGCGGGCCGACCCAGG [ΔCT Bahcc1]”: the binding result in the data set with Prdm4-ZFD is “binds more weakly”.
